Laboratory results from patent US20080166352A1.
Residue numbers refer to the chain shown, from its start. Results are given in words; binding and its absence hold for the method and conditions named. Some results given as binding are weak or reduced against the parent protein; the word gives no strength. One block for each binder: values may come before it.

Chains of the proteins cited; added tags and fusions are not shown. Residues count along the entry.
UniProt O75144, residues 19-256: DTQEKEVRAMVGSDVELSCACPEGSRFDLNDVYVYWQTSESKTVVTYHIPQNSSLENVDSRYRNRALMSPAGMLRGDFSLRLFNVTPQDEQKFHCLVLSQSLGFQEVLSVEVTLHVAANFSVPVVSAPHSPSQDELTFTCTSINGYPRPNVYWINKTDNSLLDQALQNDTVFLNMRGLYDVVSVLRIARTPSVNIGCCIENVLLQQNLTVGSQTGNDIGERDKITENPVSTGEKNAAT

Legend:
[1] = target: soluble recombinant human B7RP-1 (human) (UniProt O75144); test: Biacore and KinExA
[2] = target: cynomolgus monkey B7RP-1 on cynomolgus B cells (cynomolgus monkey); test: flow cytometry (FIG. 12A legend)
[3] = target: cynomolgus monkey B7RP-1 on cynomolgus B cells (cynomolgus monkey); test: flow cytometry on purified cynomolgus B cells
[4] = target: soluble recombinant human B7RP-1 (human) (UniProt O75144); test: KinExA

binding [1]: binds
B1: anti-B7RP1 human monoclonal antibody 2H (antibody, V domains shown)
VH: EVQLVESGGGLVQPGGSLRLSCVGSGFTFSSYWMSWVRQAPGKGLEWVAYIKQDGSEKYYVDSVKGRFTISRDNAKNSLYLQMNSLRAEDTAVYYCARDGILWFGDIPTYWGQGILVTVSS
VL: DIQMTQSPSSLSASVGDRVTITCRASQGISNWLAWYQQKPEKAPKSLIYTASSLQSGVPSRFSGSGSGTDFTLTISSLQPEDFATYYCQQYNSYPRTFGQGTKVEIK

binding [2]: binds
binding [3]: binds
B2: anti-B7RP1 human monoclonal antibody 16H (antibody, V domains shown)
VH: B1 VH with V23A, S56N, N77K, D99E, I107L, Y110F
VL: B1 VL with T50A, N92D

binding [4]: binds
B3: anti-B7RP1 human monoclonal antibody 2H germline (antibody, V domains shown)
VH: B1 VH with V23A, G24A, I115T
VL: B1 VL
